PubChem BioAssay AID686943 | Drosophila RNAi Screening Center | 2013
In all, the deposit lists about 23,000 reagents; this is a random part of those that have a named target and a result. 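Extra replicates exist only for a retested subset of genes; insulin dose and duration not given; both raised and lowered dpERK matter.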 A plus sign joins genes that one reagent is predicted to hit. Further read-outs or replicates are left out here. The record does not give: the amount of reagent, the time to read-out.

- Test: 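Search across the genome for regulators of signalling from receptor tyrosine kinase to ERK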 (primary screen)
- Cell system: Drosophila S2R+ haemocyte-like cells expressing YFP-tagged ERK (Rolled)
- Reagent: long dsRNA against Drosophila genes
- Conditions: insulin stimulation versus unstimulated cells; dose and duration not given
- Measured: 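Antibody staining for doubly phosphorylated ERK divided by ERK-YFP signal, as plate z-scores, in insulin-treated and untreated cells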
- Scale: replicate 1, z-score of dpERK with insulin and replicate 2, z-score of dpERK with insulin: higher = more active ERK per ERK-YFP after insulin

{"predicted target":"geminin","dsRNA":"DRSC04984","replicate 1, z-score of dpERK with insulin":-1.14,"replicate 2, z-score of dpERK with insulin":-0.46}
{"predicted target":"CG9338","dsRNA":"DRSC03213","replicate 1, z-score of dpERK with insulin":0.44,"replicate 2, z-score of dpERK with insulin":0.07}
{"predicted target":"stnB + stnA","dsRNA":"DRSC20969","replicate 1, z-score of dpERK with insulin":0.79,"replicate 2, z-score of dpERK with insulin":1.78}
{"predicted target":"stnB + stnA","dsRNA":"DRSC21112","replicate 1, z-score of dpERK with insulin":0.32,"replicate 2, z-score of dpERK with insulin":0.34}
{"predicted target":"stnB + stnA","dsRNA":"DRSC21113","replicate 1, z-score of dpERK with insulin":-0.65,"replicate 2, z-score of dpERK with insulin":0.37}
{"predicted target":"kairos","dsRNA":"DRSC19972","replicate 1, z-score of dpERK with insulin":0.47,"replicate 2, z-score of dpERK with insulin":0.08}
{"predicted target":"POSH","dsRNA":"DRSC07499","replicate 1, z-score of dpERK with insulin":1.01,"replicate 2, z-score of dpERK with insulin":1.1}
{"predicted target":"ng1","dsRNA":"DRSC18802","replicate 1, z-score of dpERK with insulin":0.11,"replicate 2, z-score of dpERK with insulin":1.24}
{"predicted target":"Cnb","dsRNA":"DRSC08569","replicate 1, z-score of dpERK with insulin":-0.92,"replicate 2, z-score of dpERK with insulin":-0.96}
{"predicted target":"CG5823","dsRNA":"DRSC15881","replicate 1, z-score of dpERK with insulin":0.51,"replicate 2, z-score of dpERK with insulin":-0.13}
{"predicted target":"CG5835","dsRNA":"DRSC15886","replicate 1, z-score of dpERK with insulin":0.09,"replicate 2, z-score of dpERK with insulin":0.29}
{"predicted target":"CG5756","dsRNA":"DRSC06950","replicate 1, z-score of dpERK with insulin":0.19,"replicate 2, z-score of dpERK with insulin":0.7}
{"predicted target":"squ","dsRNA":"DRSC01549","replicate 1, z-score of dpERK with insulin":0.75,"replicate 2, z-score of dpERK with insulin":0.69}

Targets above whose gene name starts with C or c:
{"predicted target":"CG9338","dsRNA":"DRSC03213","replicate 1, z-score of dpERK with insulin":0.44,"replicate 2, z-score of dpERK with insulin":0.07}
{"predicted target":"Cnb","dsRNA":"DRSC08569","replicate 1, z-score of dpERK with insulin":-0.92,"replicate 2, z-score of dpERK with insulin":-0.96}
{"predicted target":"CG5823","dsRNA":"DRSC15881","replicate 1, z-score of dpERK with insulin":0.51,"replicate 2, z-score of dpERK with insulin":-0.13}
{"predicted target":"CG5835","dsRNA":"DRSC15886","replicate 1, z-score of dpERK with insulin":0.09,"replicate 2, z-score of dpERK with insulin":0.29}
{"predicted target":"CG5756","dsRNA":"DRSC06950","replicate 1, z-score of dpERK with insulin":0.19,"replicate 2, z-score of dpERK with insulin":0.7}

The results go on.
{"predicted target":"Cyp318a1","dsRNA":"DRSC19784","replicate 1, z-score of dpERK with insulin":0.47,"replicate 2, z-score of dpERK with insulin":0.22}
{"predicted target":"rempA","dsRNA":"DRSC00327","replicate 1, z-score of dpERK with insulin":-0.28,"replicate 2, z-score of dpERK with insulin":-0.55}
{"predicted target":"CG6696","dsRNA":"DRSC20004","replicate 1, z-score of dpERK with insulin":-0.1,"replicate 2, z-score of dpERK with insulin":-0.27}
{"predicted target":"CG30187","dsRNA":"DRSC22461","replicate 1, z-score of dpERK with insulin":0.15,"replicate 2, z-score of dpERK with insulin":0.58}
{"predicted target":"Cyp6a13","dsRNA":"DRSC07375","replicate 1, z-score of dpERK with insulin":0.14,"replicate 2, z-score of dpERK with insulin":-0.09}
{"predicted target":"ckd","dsRNA":"DRSC08418","replicate 1, z-score of dpERK with insulin":0.64,"replicate 2, z-score of dpERK with insulin":0.11}
{"predicted target":"CG3740","dsRNA":"DRSC18508","replicate 1, z-score of dpERK with insulin":-0.92,"replicate 2, z-score of dpERK with insulin":0.28}
{"predicted target":"Cpr49Ab","dsRNA":"DRSC05341","replicate 1, z-score of dpERK with insulin":0.08,"replicate 2, z-score of dpERK with insulin":0.31}
